Reference: paper doi:10.1101/2023.09.12.557434
Where two headings read alike, the source gives them in different places. These are yes or no findings as the source states them, for the method shown. For some assays here: In cells and extracts the contact can be indirect. Some results given as binding are weak or reduced against the parent protein; the word gives no strength. Sequences can lack the tags named with a protein. Each block holds one binder with its values, some of them ahead of it.

The chains behind the UniProt entries cited, without tags or fusion partners. Where a name states a change or a piece, a line headed by the entry shows the natural chain unless it says otherwise. Residues count along the entry.
UniProt P93002: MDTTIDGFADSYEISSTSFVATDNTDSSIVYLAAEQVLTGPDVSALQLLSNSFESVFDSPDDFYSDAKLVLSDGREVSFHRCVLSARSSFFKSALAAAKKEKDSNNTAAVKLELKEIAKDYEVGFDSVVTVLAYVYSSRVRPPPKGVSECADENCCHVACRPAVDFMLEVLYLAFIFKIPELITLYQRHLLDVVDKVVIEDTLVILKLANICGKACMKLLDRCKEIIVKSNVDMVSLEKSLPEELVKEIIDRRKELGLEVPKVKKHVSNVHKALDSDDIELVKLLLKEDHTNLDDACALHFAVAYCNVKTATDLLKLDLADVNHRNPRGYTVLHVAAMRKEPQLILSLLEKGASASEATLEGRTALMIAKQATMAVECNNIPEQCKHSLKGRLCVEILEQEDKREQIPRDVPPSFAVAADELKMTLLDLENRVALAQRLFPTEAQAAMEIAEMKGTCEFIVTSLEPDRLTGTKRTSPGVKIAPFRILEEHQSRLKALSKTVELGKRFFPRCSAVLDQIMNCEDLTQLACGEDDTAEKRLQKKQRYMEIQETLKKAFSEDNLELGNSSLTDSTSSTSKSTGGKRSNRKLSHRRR
NPR1^1-194-cYFP: residues 1-194 of P93002
BD-NPR1^178-593: residues 178-593 of P93002

Experiments:
[1] = molecular target: BD-NPR1 (Non-expresser of PR genes 1, full length, in pGBKT7) (Arabidopsis) (UniProt P93002); test: two-hybrid
[2] = molecular target: BD-NPR1^1-194 (Arabidopsis) (UniProt P93002); test: two-hybrid
[3] = molecular target: BD-NPR1^178-593 (Arabidopsis) (UniProt P93002); test: two-hybrid
[4] = molecular target: T1, BD-TGA1 (full length, in pGBKT7) (Arabidopsis) (UniProt Q39237); test: two-hybrid
T1 sequence: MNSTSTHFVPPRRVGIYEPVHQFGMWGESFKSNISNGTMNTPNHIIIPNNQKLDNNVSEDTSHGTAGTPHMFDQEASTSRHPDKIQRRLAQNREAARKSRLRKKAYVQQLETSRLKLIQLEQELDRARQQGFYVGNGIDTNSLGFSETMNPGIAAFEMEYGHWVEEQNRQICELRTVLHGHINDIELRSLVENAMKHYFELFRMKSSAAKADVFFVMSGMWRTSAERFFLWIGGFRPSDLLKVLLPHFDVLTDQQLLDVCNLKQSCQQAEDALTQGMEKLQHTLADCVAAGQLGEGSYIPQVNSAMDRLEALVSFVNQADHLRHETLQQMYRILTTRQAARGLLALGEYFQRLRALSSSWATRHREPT

[5] = molecular target: T2, BD-TGA2 (full length, in pGBKT7) (Arabidopsis) (UniProt P43273); test: two-hybrid
T2 sequence: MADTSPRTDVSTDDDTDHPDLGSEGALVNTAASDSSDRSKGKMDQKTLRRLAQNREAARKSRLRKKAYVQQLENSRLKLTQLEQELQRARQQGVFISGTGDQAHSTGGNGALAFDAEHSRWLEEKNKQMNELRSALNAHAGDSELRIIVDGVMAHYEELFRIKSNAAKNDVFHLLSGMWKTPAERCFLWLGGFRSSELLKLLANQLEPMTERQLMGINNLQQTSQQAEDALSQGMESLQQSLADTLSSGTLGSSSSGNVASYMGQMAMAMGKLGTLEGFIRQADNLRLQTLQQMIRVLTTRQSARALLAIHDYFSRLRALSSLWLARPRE

[6] = molecular target: T3, BD-TGA3 (full length, in pGBKT7) (Arabidopsis) (UniProt Q39234); test: two-hybrid
T3 sequence: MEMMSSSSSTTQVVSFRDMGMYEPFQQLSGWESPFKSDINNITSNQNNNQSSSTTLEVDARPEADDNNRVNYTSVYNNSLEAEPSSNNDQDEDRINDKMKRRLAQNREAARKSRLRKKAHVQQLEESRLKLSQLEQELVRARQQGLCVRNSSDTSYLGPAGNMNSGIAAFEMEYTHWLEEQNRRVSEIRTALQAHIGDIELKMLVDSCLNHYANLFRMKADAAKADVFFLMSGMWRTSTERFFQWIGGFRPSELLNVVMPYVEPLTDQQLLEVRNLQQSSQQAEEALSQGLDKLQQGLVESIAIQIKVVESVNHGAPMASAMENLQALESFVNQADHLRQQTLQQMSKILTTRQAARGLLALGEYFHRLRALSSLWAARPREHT

[7] = molecular target: T4, BD-TGA4 (full length, in pGBKT7) (Arabidopsis) (UniProt Q39162); test: two-hybrid
T4 sequence: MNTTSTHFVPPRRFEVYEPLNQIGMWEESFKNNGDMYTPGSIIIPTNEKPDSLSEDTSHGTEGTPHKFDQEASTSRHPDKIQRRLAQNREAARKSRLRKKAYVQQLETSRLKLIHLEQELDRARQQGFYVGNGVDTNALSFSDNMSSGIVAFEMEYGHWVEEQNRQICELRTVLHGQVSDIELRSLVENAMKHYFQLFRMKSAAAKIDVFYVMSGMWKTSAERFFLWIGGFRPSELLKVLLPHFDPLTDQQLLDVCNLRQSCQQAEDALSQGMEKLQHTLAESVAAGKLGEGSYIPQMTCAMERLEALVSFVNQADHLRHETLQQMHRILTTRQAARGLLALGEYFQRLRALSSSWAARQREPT

[8] = molecular target: T5, BD-TGA5 (full length, in pGBKT7) (Arabidopsis) (UniProt Q39163); test: two-hybrid
T5 sequence: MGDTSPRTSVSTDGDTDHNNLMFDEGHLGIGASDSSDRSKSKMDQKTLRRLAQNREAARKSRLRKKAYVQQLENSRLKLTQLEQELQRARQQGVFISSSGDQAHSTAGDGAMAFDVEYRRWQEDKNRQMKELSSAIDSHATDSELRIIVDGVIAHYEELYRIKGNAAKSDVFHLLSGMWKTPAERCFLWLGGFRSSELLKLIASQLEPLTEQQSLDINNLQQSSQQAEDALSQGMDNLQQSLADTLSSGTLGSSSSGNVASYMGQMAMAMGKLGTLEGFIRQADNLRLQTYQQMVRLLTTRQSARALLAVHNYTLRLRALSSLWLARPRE

[9] = molecular target: T6, BD-TGA6 (full length, in pGBKT7) (Arabidopsis) (UniProt Q39140); test: two-hybrid
T6 sequence: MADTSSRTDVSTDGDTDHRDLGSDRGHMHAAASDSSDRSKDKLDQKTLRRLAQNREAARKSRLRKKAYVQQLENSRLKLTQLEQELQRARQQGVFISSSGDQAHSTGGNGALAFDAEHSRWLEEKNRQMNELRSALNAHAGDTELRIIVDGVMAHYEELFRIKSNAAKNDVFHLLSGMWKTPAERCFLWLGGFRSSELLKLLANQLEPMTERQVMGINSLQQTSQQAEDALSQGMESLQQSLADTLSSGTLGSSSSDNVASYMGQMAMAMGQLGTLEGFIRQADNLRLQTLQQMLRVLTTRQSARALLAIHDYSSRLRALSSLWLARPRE

[10] = molecular target: T7, BD-TGA7 (full length, in pGBKT7) (Arabidopsis) (UniProt Q93ZE2); test: two-hybrid
T7 sequence: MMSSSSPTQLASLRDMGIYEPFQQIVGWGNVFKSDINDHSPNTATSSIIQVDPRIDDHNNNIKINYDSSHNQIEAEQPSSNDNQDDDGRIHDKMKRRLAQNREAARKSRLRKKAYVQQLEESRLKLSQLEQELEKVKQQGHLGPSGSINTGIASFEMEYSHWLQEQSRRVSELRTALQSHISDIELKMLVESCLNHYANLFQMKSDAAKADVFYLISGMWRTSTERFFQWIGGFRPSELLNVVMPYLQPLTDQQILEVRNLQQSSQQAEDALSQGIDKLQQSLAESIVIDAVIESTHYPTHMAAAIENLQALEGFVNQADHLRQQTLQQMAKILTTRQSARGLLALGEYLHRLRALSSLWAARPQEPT

NPR1-cYFP (Arabidopsis) [11] = molecular target: NPR1-cYFP (Arabidopsis) (UniProt P93002); test: split reporter
NPR1-cYFP (Arabidopsis) [12] = molecular target: NPR1-cYFP (Arabidopsis) (UniProt P93002); test: split reporter; remark: listed apart in the source
[13] = molecular target: NPR1^1-194-cYFP (Arabidopsis) (UniProt P93002); test: split reporter
TGA1-cYFP (Arabidopsis) = molecular target: T8, TGA1-cYFP (Arabidopsis) (UniProt Q39237); test: split reporter
T8 sequence: T1 sequence

TGA2-cYFP (Arabidopsis) = molecular target: T9, TGA2-cYFP (Arabidopsis) (UniProt P43273); test: split reporter
T9 sequence: T2 sequence

TGA3-cYFP (Arabidopsis) = molecular target: T10, TGA3-cYFP (Arabidopsis) (UniProt Q39234); test: split reporter
T10 sequence: T3 sequence

TGA7-cYFP (Arabidopsis) = molecular target: T11, TGA7-cYFP (Arabidopsis) (UniProt Q93ZE2); test: split reporter
T11 sequence: T7 sequence

NPR1-cLUC (Arabidopsis) [14] = molecular target: NPR1-cLUC (Arabidopsis) (UniProt P93002); test: split reporter
NPR1-cLUC (Arabidopsis) [15] = molecular target: NPR1-cLUC (Arabidopsis) (UniProt P93002); test: split reporter; remark: listed apart in the source
cLUC-TGA3 (Arabidopsis) = molecular target: T12, cLUC-TGA3 (Arabidopsis) (UniProt Q39234); test: split reporter
T12 sequence: T3 sequence

binding [1]: binds
binding [2]: binds
binding [3]: no binding
binding [4]: binds
binding [5]: binds
binding [6]: binds
binding [7]: binds
binding [8]: binds
binding [9]: binds
binding [10]: binds
B1: AD-ICE1 (Inducer of CBF expression 1, full length, in pGADT7) (protein, UniProt Q9LSE2 1-494)
chain: MGLDGNNGGGVWLNGGGGEREENEEGSWGRNQEDGSSQFKPMLEGDWFSSNQPHPQDLQMLQNQPDFRYFGGFPFNPNDNLLLQHSIDSSSSCSPSQAFSLDPSQQNQFLSTNNNKGCLLNVPSSANPFDNAFEFGSESGFLNQIHAPISMGFGSLTQLGNRDLSSVPDFLSARSLLAPESNNNNTMLCGGFTAPLELEGFGSPANGGFVGNRAKVLKPLEVLASSGAQPTLFQKRAAMRQSSGSKMGNSESSGMRRFSDDGDMDETGIEVSGLNYESDEINESGKAAESVQIGGGGKGKKKGMPAKNLMAERRRRKKLNDRLYMLRSVVPKISKMDRASILGDAIDYLKELLQRINDLHNELESTPPGSLPPTSSSFHPLTPTPQTLSCRVKEELCPSSLPSPKGQQARVEVRLREGRAVNIHMFCGRRPGLLLATMKALDNLGLDVQQAVISCFNGFALDVFRAEQCQEGQEILPDQIKAVLFDTAGYAGMI

binding (NPR1-cYFP (Arabidopsis) [11]): binds weakly
binding (NPR1-cYFP (Arabidopsis) [12]): binds
binding [13]: binds
binding (TGA1-cYFP (Arabidopsis)): binds
binding (TGA2-cYFP (Arabidopsis)): binds
binding (TGA3-cYFP (Arabidopsis)): binds
binding (TGA7-cYFP (Arabidopsis)): binds
B2: ICE1-nYFP (protein, UniProt Q9LSE2 1-494)
chain: B1 chain

binding (NPR1-cLUC (Arabidopsis) [14]): binds weakly
binding (NPR1-cLUC (Arabidopsis) [15]): binds
binding (cLUC-TGA3 (Arabidopsis)): binds
B3: ICE1-nLUC (protein, UniProt Q9LSE2 1-494)
chain: B1 chain
